Measurements taken from patent US11230581B2, “Peptides and combination of peptides for use in immunotherapy against ovarian cancer and other cancers” (Immatics Biotechnologies GmbH, priority 2015, dated 2022).

Test system: additional tumor types
Test: LC-MS detection and over-presentation of the peptides on additional tumor types, cell lines and primary cultures
Design: species or system human
Details: for Other relevant organs/ cancerous diseases: Table 4A: additional tumor types on which the peptide was found, over-presented on more than 5% of measured tumor samples, or presented on more than 5% with ratio of geometric means tumor vs normal tissues larger than 3
[1] = additional tumor types with over-presentation on more than 5% of the measured tumor samples, or presentation on more than 5% with ratio of geometric means tumor vs normal tissues larger than 3
[2] = cell lines and primary cultures
[3] = leukocytic leukemia cancers (FIG. 1D: leukemias)

Substance: 635 (SLDSTLHAV; listed as Homo sapiens) [compound 635]
- Other relevant organs/ cancerous diseases: NSCLC, Brain Cancer, CRC, HCC, BrCa, Esophageal Cancer
- Additional organs/cancerous diseases [1]: SCLC, Melanoma, Urinary Bladder Cancer, Uterine Cancer, Gallbladder Cancer and Bile Duct Cancer

Substance: 571 (LLLTTIPQI; listed as Homo sapiens) [compound 571]
- Other relevant organs/ cancerous diseases: Prostate, Leukemia
- Additional organs/cancerous diseases [1]: Melanoma

Substance: 329 (FLVTLNNVEV; listed as Homo sapiens) [compound 329]
- Other relevant organs/ cancerous diseases: Melanoma

Substance: 556 (FLTDLEDLTL; listed as Homo sapiens) [compound 556]
- Other relevant organs/ cancerous diseases: SCLC, Leukemia
- Additional organs/cancerous diseases [1]: CLL, Uterine Cancer, NHL

Substance: 290 (GLLDLNNAILQL; listed as Homo sapiens) [compound 290]
- Other relevant organs/ cancerous diseases: HCC
- Additional organs/cancerous diseases [1]: Uterine Cancer

Substance: 313 (VLFDDELLMV; listed as Homo sapiens) [compound 313]
- Other relevant organs/ cancerous diseases: NSCLC, RCC, Brain Cancer, HCC, Esophageal Cancer

Substance: 330 (QLALKVEGV; listed as Homo sapiens) [compound 330]
- Other relevant organs/ cancerous diseases: Esophageal Cancer
- Additional organs/cancerous diseases [1]: CLL, Urinary Bladder Cancer, AML, NHL, HNSCC

Substance: 580 (LLMENAERV; listed as Homo sapiens) [compound 580]
- Other relevant organs/ cancerous diseases: CRC, Leukemia, BrCa, Melanoma
- Additional organs/cancerous diseases [1]: CLL, Esophageal Cancer, Urinary Bladder Cancer, Uterine Cancer, NHL, HNSCC

Substance: 577 (VMFEDGVLMRL; listed as Homo sapiens) [compound 577]
- Other relevant organs/ cancerous diseases: Colon, Rectum, Leukemia
- Additional organs/cancerous diseases [1]: SCLC, CLL, Urinary Bladder Cancer, AML, NHL, HNSCC

Substance: 393 (GLLDTQTSQVLTA; listed as Homo sapiens) [compound 393]
- Other relevant organs/ cancerous diseases: HCC, BrCa, Esophageal Cancer, Urinary bladder Cancer
- Additional organs/cancerous diseases [1]: CRC, Gallbladder Cancer and Bile Duct Cancer, HNSCC

Substance: 391 (YVYPQRLNFV; listed as Homo sapiens) [compound 391]
- Other relevant organs/ cancerous diseases: Leukemia, Melanoma

Substance: 316 (ILLERLWYV; listed as Homo sapiens) [compound 316]
- Other relevant organs/ cancerous diseases: Melanoma

Substance: 269 (RVLEVGALQAV; listed as Homo sapiens) [compound 269]
- Other relevant organs/ cancerous diseases: HCC
- Additional organs/cancerous diseases [1]: CLL

Substance: 207 (GLTSTNAEV; listed as Homo sapiens) [compound 207]
- Other relevant organs/ cancerous diseases: HCC, PrC, Esophageal Cancer, Uterine Cancer
- Additional organs/cancerous diseases [1]: AML

Substance: 302 (ALLQEGEVYSA; listed as Homo sapiens) [compound 302]
- Additional organs/cancerous diseases [1]: Melanoma, Urinary Bladder Cancer

Substance: 294 (ILDPFQYQL; listed as Homo sapiens) [compound 294]
- Other relevant organs/ cancerous diseases: HCC, Esophageal Cancer
- Additional organs/cancerous diseases [1]: Melanoma, Gallbladder Cancer and Bile Duct Cancer, NHL, HNSCC

Substance: 614 (LLLPDQPPYHL; listed as Homo sapiens) [compound 614]
- Other relevant organs/ cancerous diseases: Melanoma
- Additional organs/cancerous diseases [1]: CLL

Substance: TLAELQPPVQL (listed as Homo sapiens) [SEQ ID NO.: 57]
- number of samples with detectable presentation of the peptide (bile duct cancers): 1
- number of samples with detectable presentation of the peptide (brain cancers): 1
- number of samples with detectable presentation of the peptide (cancer tissues, total): 32
- number of samples with detectable presentation of the peptide [2]: 4
- number of samples with detectable presentation of the peptide (esophageal cancers): 2
- number of samples with detectable presentation of the peptide (head and neck cancers): 3
- number of samples with detectable presentation of the peptide [3]: 2
- number of samples with detectable presentation of the peptide (liver cancers): 1
- number of samples with detectable presentation of the peptide (lung cancers): 9
- number of samples with detectable presentation of the peptide (lymph node cancers): 4
- number of samples with detectable presentation of the peptide (skin cancers): 2
- number of samples with detectable presentation of the peptide (urinary bladder cancers): 1
- number of samples with detectable presentation of the peptide (uterus cancers): 1

Substance: 273 (NLFQSVREV; listed as Homo sapiens) [compound 273]
- Other relevant organs/ cancerous diseases: HCC, BrCa

Substance: 452 (ILLEHGADPNL; listed as Homo sapiens) [compound 452]
- Other relevant organs/ cancerous diseases: HCC, Leukemia, Melanoma
- Additional organs/cancerous diseases [1]: CLL, Urinary Bladder Cancer, NHL

Substance: 578 (FLDPGGPMMKL; listed as Homo sapiens) [compound 578]
- Other relevant organs/ cancerous diseases: NSCLC, CRC, MCC, Melanoma
- Additional organs/cancerous diseases [1]: SCLC, CLL, BRCA, Urinary Bladder Cancer, HNSCC

Substance: 388 (SLTIDGIRYV; listed as Homo sapiens) [compound 388]
- Other relevant organs/ cancerous diseases: SCLC, Melanoma
- Additional organs/cancerous diseases [1]: Brain Cancer

Substance: 445 (GLYQDPVTL; listed as Homo sapiens) [compound 445]
- Additional organs/cancerous diseases [1]: Uterine Cancer, AML

Substance: 369 (GLFPEHLIDV; listed as Homo sapiens) [compound 369]
- Other relevant organs/ cancerous diseases: HCC

Substance: 326 (FLPEALDFV; listed as Homo sapiens) [compound 326]
- Additional organs/cancerous diseases [1]: CLL, AML, NHL

Substance: 85 (KMSELRVTL; listed as Homo sapiens) [compound 85]
- Other relevant organs/ cancerous diseases: SCLC, Esophageal Cancer

Substance: 573 (ILVANAIVGV; listed as Homo sapiens) [compound 573]
- Other relevant organs/ cancerous diseases: NSCLC, HCC, Leukemia, Melanoma
- Additional organs/cancerous diseases [1]: CLL, SCLC, Urinary Bladder Cancer

Substance: 623 (YLVEDIQHI; listed as Homo sapiens) [compound 623]
- Additional organs/cancerous diseases [1]: NSCLC, PC

Substance: 22 (IMEENPGIFAV; listed as Homo sapiens) [compound 22]
- Other relevant organs/ cancerous diseases: CRC, Leukemia, Melanoma
- Additional organs/cancerous diseases (amendment of Table 4: additional tumor types showing over-presentation (including specific presentation) on more than 5% of measured tumor samples, or presentation on more than 5% with ratio of geometric means tumor vs normal tissues larger than 3): CLL, Urinary Bladder Cancer, Gallbladder Cancer and Bile Duct Cancer

Substance: 361 (ALYELEGTTV; listed as Homo sapiens) [compound 361]
- Other relevant organs/ cancerous diseases: Esophageal Cancer
- Additional organs/cancerous diseases [1]: NSCLC, SCLC, CLL, BRCA, Urinary Bladder Cancer, Uterine Cancer, Gallbladder Cancer and Bile Duct Cancer, HNSCC

Substance: 598 (FLFPHSVLV; listed as Homo sapiens) [compound 598]
- Additional organs/cancerous diseases [1]: CRC

Substance: 284 (ILLSQTTGV; listed as Homo sapiens) [compound 284]
- Other relevant organs/ cancerous diseases: Prostate, Leukemia
- Additional organs/cancerous diseases [1]: CLL, Urinary Bladder Cancer, AML, HNSCC

Substance: SLFGNSGILENV (listed as Homo sapiens) [SEQ ID NO.: 479]
- number of samples with detectable presentation of the peptide (breast cancers): 1
- number of samples with detectable presentation of the peptide (cancer tissues, total): 33
- number of samples with detectable presentation of the peptide [2]: 7
- number of samples with detectable presentation of the peptide (colon cancers): 1
- number of samples with detectable presentation of the peptide (esophageal cancers): 1
- number of samples with detectable presentation of the peptide (head and neck cancers): 1
- number of samples with detectable presentation of the peptide [3]: 1
- number of samples with detectable presentation of the peptide (liver cancers): 3
- number of samples with detectable presentation of the peptide (lung cancers): 10
- number of samples with detectable presentation of the peptide (lymph node cancers): 1
- number of samples with detectable presentation of the peptide (myeloid cell cancer): 1
- number of samples with detectable presentation of the peptide (skin cancers): 2
- number of samples with detectable presentation of the peptide (urinary bladder cancers): 3
- number of samples with detectable presentation of the peptide (uterus cancers): 1
